Test results: the supplement of paper PMC10849652
The list shows a part of the results.

Chains of the proteins cited; added tags and fusions are not shown. Lines headed by an entry give the natural chain unless they say otherwise; changes in a name come on top.
UniProt P62937, whole entry, looked up: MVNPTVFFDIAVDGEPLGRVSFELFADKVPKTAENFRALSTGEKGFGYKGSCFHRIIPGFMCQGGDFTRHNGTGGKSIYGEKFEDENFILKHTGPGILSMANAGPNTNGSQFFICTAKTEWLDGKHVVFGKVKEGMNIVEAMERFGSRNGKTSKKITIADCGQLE
UniProt O75688: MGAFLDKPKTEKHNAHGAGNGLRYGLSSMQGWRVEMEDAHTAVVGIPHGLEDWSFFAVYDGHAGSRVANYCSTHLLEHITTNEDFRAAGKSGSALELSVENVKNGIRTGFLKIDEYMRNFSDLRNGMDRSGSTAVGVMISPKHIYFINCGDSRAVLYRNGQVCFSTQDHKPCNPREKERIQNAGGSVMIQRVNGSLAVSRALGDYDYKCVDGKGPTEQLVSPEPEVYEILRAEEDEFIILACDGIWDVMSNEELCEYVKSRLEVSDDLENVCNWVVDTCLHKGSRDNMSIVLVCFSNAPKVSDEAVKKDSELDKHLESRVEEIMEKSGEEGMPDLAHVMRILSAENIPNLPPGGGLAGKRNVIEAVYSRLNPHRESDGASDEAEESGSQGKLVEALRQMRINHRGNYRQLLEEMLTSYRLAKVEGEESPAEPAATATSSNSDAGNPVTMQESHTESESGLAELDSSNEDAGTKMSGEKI
UniProt O43314: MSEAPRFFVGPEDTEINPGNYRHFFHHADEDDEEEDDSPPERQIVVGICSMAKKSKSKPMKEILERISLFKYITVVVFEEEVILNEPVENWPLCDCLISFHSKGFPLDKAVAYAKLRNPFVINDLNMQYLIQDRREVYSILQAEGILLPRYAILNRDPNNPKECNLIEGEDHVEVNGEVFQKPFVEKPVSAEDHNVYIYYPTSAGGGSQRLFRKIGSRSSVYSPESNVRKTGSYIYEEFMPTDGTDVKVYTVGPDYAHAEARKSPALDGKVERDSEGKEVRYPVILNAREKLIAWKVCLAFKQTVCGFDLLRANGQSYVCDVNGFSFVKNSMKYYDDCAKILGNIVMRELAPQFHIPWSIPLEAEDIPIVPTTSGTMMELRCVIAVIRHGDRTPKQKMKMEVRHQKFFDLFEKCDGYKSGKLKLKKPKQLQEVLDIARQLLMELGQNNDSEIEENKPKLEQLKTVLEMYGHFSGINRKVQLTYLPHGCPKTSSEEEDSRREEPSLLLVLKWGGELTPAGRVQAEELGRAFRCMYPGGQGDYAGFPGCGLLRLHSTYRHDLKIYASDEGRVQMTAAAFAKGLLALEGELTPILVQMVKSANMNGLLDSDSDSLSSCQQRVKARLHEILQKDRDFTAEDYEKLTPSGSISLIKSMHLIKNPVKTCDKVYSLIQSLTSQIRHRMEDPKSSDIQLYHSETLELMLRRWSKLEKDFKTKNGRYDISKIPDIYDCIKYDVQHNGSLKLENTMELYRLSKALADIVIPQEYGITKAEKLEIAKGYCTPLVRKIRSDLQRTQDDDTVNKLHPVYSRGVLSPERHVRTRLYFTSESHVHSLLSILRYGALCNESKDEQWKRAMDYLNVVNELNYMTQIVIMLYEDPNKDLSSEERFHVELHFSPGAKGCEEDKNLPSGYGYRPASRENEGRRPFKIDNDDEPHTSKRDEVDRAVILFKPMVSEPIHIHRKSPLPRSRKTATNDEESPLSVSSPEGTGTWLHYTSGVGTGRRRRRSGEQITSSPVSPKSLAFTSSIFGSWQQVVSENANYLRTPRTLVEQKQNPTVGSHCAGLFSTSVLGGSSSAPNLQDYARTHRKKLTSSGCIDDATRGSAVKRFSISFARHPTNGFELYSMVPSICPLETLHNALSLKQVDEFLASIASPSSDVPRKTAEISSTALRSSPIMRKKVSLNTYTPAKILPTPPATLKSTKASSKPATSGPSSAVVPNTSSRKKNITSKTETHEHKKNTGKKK
UniProt Q13136: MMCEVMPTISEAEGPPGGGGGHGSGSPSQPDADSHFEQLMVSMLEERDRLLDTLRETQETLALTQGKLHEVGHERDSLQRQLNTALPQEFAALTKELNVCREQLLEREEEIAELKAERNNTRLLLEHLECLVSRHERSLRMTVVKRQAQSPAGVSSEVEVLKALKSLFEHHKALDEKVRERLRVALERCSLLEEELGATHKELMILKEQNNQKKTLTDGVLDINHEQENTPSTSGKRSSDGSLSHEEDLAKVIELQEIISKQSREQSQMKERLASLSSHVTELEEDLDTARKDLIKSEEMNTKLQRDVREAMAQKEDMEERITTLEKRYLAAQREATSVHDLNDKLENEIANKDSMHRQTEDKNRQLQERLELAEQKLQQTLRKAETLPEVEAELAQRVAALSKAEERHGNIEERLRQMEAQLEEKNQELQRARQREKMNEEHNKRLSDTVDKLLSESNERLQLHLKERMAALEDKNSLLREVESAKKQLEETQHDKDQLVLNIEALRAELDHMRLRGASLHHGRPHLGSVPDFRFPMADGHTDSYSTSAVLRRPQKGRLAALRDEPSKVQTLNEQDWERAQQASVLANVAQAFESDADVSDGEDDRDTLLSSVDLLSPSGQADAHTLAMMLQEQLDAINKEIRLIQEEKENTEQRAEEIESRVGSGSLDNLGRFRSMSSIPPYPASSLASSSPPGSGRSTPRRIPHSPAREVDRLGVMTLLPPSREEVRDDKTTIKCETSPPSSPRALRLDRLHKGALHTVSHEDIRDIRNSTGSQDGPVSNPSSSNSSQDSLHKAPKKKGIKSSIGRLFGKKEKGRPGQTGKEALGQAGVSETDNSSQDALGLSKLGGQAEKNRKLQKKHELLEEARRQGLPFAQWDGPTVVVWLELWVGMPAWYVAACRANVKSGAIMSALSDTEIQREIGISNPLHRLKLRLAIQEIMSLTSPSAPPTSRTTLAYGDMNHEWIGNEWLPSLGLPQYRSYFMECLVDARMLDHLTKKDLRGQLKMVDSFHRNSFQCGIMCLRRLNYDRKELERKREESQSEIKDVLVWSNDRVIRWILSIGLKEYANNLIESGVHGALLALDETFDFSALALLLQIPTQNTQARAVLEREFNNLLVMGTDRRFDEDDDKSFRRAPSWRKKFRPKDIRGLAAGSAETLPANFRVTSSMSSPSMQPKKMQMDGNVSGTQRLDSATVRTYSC
UniProt Q9UHN1: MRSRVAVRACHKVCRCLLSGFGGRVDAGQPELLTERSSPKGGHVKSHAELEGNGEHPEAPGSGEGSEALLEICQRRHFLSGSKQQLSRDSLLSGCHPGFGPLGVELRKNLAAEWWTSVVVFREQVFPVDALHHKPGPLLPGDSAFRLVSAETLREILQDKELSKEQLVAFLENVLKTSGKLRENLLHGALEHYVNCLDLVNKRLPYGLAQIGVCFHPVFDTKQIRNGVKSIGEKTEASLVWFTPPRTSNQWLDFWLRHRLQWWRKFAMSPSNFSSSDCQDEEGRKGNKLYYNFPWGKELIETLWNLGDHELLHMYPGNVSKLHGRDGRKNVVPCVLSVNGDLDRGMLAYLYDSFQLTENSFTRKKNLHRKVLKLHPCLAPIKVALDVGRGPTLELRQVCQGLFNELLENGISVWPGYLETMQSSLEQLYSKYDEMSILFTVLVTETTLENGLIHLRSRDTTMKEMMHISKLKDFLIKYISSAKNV
UniProt O60568: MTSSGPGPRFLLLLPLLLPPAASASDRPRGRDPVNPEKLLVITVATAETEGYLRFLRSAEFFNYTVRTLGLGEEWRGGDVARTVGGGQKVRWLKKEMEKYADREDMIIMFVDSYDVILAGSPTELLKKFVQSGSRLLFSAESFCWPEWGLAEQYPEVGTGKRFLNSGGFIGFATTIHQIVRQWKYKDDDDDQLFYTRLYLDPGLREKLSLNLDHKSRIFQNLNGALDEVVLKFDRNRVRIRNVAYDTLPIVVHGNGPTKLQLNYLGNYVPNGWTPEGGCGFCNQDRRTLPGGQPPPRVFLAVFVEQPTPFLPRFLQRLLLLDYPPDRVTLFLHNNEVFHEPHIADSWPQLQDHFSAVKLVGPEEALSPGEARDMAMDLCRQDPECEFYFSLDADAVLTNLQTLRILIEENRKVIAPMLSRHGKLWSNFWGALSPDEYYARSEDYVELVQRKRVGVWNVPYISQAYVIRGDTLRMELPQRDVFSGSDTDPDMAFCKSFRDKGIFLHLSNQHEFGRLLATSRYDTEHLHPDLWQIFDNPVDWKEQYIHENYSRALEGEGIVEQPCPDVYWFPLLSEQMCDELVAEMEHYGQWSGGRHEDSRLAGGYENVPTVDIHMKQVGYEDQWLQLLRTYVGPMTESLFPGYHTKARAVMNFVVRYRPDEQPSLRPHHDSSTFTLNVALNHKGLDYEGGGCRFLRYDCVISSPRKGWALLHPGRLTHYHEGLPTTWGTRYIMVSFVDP
UniProt Q8WZA1: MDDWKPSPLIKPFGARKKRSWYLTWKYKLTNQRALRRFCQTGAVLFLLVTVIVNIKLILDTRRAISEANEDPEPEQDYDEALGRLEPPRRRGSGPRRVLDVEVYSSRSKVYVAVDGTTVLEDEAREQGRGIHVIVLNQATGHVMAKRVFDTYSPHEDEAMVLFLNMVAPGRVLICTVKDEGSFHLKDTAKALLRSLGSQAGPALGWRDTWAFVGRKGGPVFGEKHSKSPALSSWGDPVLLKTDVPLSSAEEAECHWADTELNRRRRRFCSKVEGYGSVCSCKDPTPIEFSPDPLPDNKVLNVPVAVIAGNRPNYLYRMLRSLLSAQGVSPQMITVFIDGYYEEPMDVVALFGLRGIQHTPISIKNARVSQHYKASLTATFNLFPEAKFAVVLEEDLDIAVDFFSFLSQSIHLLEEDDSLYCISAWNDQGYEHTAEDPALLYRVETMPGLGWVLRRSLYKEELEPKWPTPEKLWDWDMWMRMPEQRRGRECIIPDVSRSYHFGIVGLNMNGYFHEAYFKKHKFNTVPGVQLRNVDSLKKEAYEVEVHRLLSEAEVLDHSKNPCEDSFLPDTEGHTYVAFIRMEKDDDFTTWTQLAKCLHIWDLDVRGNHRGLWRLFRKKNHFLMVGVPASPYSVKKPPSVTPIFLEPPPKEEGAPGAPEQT
UniProt Q06203, whole entry, looked up: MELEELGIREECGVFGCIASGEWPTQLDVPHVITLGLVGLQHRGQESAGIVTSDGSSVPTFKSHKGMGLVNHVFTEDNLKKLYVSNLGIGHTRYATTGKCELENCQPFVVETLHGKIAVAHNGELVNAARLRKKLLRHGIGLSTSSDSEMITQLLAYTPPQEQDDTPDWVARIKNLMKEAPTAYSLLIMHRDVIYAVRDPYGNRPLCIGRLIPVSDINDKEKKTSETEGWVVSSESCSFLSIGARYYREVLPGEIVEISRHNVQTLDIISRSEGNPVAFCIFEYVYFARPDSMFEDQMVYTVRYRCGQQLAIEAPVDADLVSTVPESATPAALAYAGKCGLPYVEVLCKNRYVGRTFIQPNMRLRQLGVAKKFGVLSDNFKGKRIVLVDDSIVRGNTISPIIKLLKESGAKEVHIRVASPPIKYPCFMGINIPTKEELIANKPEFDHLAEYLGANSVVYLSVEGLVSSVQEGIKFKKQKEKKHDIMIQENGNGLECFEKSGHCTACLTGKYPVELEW
UniProt Q969H6: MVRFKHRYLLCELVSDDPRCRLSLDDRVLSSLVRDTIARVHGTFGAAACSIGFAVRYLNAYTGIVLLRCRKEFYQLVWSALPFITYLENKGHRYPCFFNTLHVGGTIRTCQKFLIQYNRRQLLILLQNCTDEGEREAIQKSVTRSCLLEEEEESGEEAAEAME
UniProt Q15063: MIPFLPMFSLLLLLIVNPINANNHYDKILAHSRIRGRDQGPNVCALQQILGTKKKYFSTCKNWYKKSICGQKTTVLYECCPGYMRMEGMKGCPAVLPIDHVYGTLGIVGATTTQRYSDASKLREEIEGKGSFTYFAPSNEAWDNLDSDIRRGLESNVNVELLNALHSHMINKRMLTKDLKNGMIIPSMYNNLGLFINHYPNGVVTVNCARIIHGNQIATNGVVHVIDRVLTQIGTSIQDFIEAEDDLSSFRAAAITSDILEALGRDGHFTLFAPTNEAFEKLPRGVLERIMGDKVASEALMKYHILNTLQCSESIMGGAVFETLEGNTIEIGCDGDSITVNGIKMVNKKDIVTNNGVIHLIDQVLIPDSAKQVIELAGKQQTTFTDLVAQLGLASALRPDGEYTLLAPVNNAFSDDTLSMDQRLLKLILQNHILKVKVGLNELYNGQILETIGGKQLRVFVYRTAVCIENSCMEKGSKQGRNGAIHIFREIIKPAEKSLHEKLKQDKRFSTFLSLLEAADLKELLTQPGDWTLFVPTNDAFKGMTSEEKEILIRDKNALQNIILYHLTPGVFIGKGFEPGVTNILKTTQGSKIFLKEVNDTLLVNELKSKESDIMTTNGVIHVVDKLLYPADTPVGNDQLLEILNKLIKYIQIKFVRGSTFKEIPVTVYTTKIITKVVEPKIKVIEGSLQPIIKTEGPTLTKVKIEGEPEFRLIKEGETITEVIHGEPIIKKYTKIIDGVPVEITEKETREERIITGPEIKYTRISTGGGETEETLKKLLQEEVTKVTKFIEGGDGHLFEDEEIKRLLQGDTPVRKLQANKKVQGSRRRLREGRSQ

These targets were tested with COc1cc2ncnc(Nc3ccc(F)c(Cl)c3)c2cc1OCCCN1CCOCC1 [gefitinib] (assay: log2 fold change, soluble protein after heating vs DMSO (PISA); higher = thermal stabilisation; K562 cells, 10 uM, 30 min; active = over 0.2 and 3.5 SD of the protein, either way, in both replicates (recomputed)).
How it was run: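 For each measurement, 10 μM compound was applied for 30 min to K562 cells at 2×10^6 cells/mL. Aliquots were heated for 3 min across 48°C-58°C, pooled, and extracted in PBS with 0.5% NP-40 at 4°C; the supernatant after 21,000xg for 90 min was soluble protein. This was quantified by TMTpro 16plex LC-MS/MS with channel sums equalised, and thermal stability was reported relative to control samples from duplicates, on a log2 fold-change scale.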

log2 fold change, inactive:
POFUT2 (UniProt Q9Y2G5) 0.02
PPIA (UniProt P62937) 0.035
POLR3C (UniProt Q9BUI4) -0.006
POFUT1 (UniProt Q9H488) 0.012
PPM1B (UniProt O75688) 0.017
PPIP5K2 (UniProt O43314) -0.008
PNPO (UniProt Q9NVS9) -0.02
POLDIP3 (UniProt Q9BY77) -0.003
PPFIA1 (UniProt Q13136) -0.082
PMF1 (UniProt Q6P1K2) 0.391
POLG2 (UniProt Q9UHN1) -0.014
PLOD3 (UniProt O60568) 0.019
PLXNB2 (UniProt O15031) 0.014
PNO1 (UniProt Q9NRX1) -0.006
PLIN3 (UniProt O60664) -0.024
POMGNT1 isoform 2 (UniProt Q8WZA1) 0.157
POP7 (UniProt O75817) -0.089
PPAT (UniProt Q06203) -0.013
PPAN isoform 3 (UniProt Q9NQ55) -0.1
PPA2 (UniProt Q9H2U2) -0.004
POP5 (UniProt Q969H6) 0.163
POSTN (UniProt Q15063) -0.053
POLDIP2 (UniProt Q9Y2S7) 0.076

2 entries drawn at random from those above:
log2 fold change, inactive:
PNO1 (UniProt Q9NRX1) -0.006
POFUT1 (UniProt Q9H488) 0.012
